These are yes or no findings as the source states them, for the method shown. Binding seen in cells or lysates may run through a third protein. Some binding calls cover weakened binding; strength is not graded here.
Molecular target: T1, endogenous CHMP7 (human (endogenous in Tet-VPS4B^E235Q-mVenus glioblastoma cells)) (UniProt Q8WUX9)
T1 sequence: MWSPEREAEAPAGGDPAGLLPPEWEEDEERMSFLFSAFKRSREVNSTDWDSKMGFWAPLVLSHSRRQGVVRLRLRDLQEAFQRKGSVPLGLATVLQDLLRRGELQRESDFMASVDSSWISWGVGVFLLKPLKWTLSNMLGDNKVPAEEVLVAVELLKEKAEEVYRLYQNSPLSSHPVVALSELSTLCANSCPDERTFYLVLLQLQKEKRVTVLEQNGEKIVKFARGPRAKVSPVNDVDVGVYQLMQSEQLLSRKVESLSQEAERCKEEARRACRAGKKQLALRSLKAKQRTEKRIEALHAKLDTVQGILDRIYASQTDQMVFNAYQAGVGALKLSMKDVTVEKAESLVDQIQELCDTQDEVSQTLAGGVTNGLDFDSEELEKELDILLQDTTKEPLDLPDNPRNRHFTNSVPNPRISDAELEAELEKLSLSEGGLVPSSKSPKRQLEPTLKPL
Assay: co-IP; lysate of Tet-VPS4B^E235Q-mVenus cells in the absence (DOX-) and presence (DOX+) of DOX; precipitated with anti-CHMP7 antibodies; normal rabbit IgG as negative control; VPS4B^E235Q-mVenus detected with anti-GFP antibodies

B1: VPS4B^E235Q-mVenus (enzyme, UniProt O75351 1-444)
chain: MSSTSPNLQKAIDLASKAAQEDKAGNYEEALQLYQHAVQYFLHVVKYEAQGDKAKQSIRAKCTEYLDRAEKLKEYLKNKEKKAQKPVKEGQPSPADEKGNDSDGEGESDDPEKKKLQNQLQGAIVIERPNVKWSDVAGLEGAKEALKEAVILPIKFPHLFTGKRTPWRGILLFGPPGTGKSYLAKAVATEANNSTFFSISSSDLVSKWLGESEKLVKNLFQLARENKPSIIFIDQIDSLCGSRSENESEAARRIKTEFLVQMQGVGVDNDGILVLGATNIPWVLDSAIRRRFEKRIYIPLPEPHARAAMFKLHLGTTQNSLTEADFRELGRKTDGYSGADISIIVRDALMQPVRKVQSATHFKKVRGPSRADPNHLVDDLLTPCSPGDPGAIEMTWMDVPGDKLLEPVVSMSDMLRSLSNTKPTVNEHDLLKLKKFTEDFGQEG
  binding: binds

Source: PMC11622617
